In patent US6753298B2, “Agents for combating Neospora spec” (Bayer AG, priority 1997, dated 2004):
The name of at least one read-out is uncertain.

Test system: Neospora caninum
Test: Testing substances on infected Neospora caninum cell cultures
Settings: host cells Vero or ED, evaluation 4 days after beginning of treatment, 5 days after infection

Compound	Assessment (microscopic evaluation), Neospora caninum in cell culture (Dose 10^−6 g/ml)	Assessment (microscopic evaluation), Neospora caninum in cell culture (Dose 10^−7 g/ml)
C#CC(C)OC(=O)Nc1cccc(Cl)c1 (stereo not drawn) [Chlorbufam, chlorbufam]	0	
CC(C)OC(=O)Nc1cccc(Cl)c1 [Chlorpropham, chlorpropham]	2	1
